Assay [1] deals with T1, GST-tagged WT-Pdlim5 (PDZ and LIM domain 5) (mouse) (UniProt Q8CI51).
T1 sequence: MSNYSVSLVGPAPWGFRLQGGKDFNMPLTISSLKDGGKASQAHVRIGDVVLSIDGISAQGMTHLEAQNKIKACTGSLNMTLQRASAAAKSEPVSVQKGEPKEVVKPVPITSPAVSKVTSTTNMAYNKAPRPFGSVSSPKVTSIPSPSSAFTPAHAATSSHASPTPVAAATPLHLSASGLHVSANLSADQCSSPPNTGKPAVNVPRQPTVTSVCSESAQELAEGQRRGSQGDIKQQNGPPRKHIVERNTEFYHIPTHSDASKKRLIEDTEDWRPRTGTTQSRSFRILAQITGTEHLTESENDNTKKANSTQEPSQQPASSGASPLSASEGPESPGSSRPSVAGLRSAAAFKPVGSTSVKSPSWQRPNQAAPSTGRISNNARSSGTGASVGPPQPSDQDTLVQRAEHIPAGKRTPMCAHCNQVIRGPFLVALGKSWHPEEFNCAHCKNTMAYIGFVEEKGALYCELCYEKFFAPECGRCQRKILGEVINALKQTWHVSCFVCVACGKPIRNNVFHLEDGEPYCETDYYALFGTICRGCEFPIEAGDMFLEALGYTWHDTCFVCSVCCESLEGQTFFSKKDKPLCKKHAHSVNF
In words: pull-down; GST-Pdlim5 (WT or S177D) pull-down from U937 lysate; eluates immunoblotted with anti-Arhgef6 antibody; only the target purified.

The target of assay [2] is T2, GST-tagged S177D-Pdlim5 (mouse) (UniProt Q8CI51).
T2 sequence: T1 sequence with S177D
The description is as above.

Residue numbers refer to the chain shown, from its start. These are yes or no findings as the source states them, for the method shown. Binding seen in cells or lysates may run through a third protein. Some entries that bind do so weakly or less than the wild type. Tags and fused reporters may be left off the sequences shown.

B1: Rho GEF 6 (Arhgef6) (protein, UniProt Q15052 1-776)
chain: MNPEEQIVTWLISLGVLESPKKTICDPEEFLKSSLKNGVVLCKLINRLMPGSVEKFCLDPQTEADCINNINDFLKGCATLQVEIFDPDDLYSGVNFSKVLSTLLAVNKATEDQLSERPCGRSSSLSAANTSQTNPQGAVSSTVSGLQRQSKTVEMTENGSHQLIVKARFNFKQTNEDELSVCKGDIIYVTRVEEGGWWEGTLNGRTGWFPSNYVREIKSSERPLSPKAVKGFETAPLTKNYYTVVLQNILDTEKEYAKELQSLLVTYLRPLQSNNNLSTVEVTSLLGNFEEVCTFQQTLCQALEECSKFPENQHKVGGCLLSLMPHFKSMYLAYCANHPSAVNVLTQHSDELEQFMENQGASSPGILILTTNLSKPFMRLEKYVTLLQELERHMEDTHPDHQDILKAIVAFKTLMGQCQDLRKRKQLELQILSEPIQAWEGEDIKNLGNVIFMSQVMVQYGACEEKEERYLMLFSNVLIMLSASPRMSGFIYQGKIPIAGTVVTRLDEIEGNDCTFEITGNTVERIVVHCNNNQDFQEWLEQLNRLIRGPASCSSLSKTSSSSCSAHSSFSSTGQPRGPLEPPQIIKPWSLSCLRPAPPLRPSAALGYKERMSYILKESSKSPKTMKKFLHKRKTERKPSEEEYVIRKSTAALEEDAQILKVIEAYCTSANFQQGHGSSTRKDSIPQVLLPEEEKLIIEETRSNGQTIMEEKSLVDTVYALKDEVRELKQENKRMKQCLEEELKSRRDLEKLVRRLLKQTDECIRGESSSKTSILP
Turning to B1, the binding result in assay [1] is given as “binds”; in assay [2] it was “no binding”.

The record behind these values is paper PMC4317497.
